Experiment: soluble on expression in E. coli; label from the status in PepcDB or PDB records

Sequence	soluble on expression in E. coli
MAAQYGSMSFNPSTPGASYGPGRQEPRNSQLRIVLVGKTGAGKSATGNSILGRKVFHSGTAAKSITKKCEKRSSSWKETELVVVDTPGIFDTEVPNAETSKEIIRCILLTSPGPHALLLVVPLGRYTEEEHKATEKILKMFGERARSFMILIFTRKDDLGDTNLHDYLREAPEDIQDLMDIFGDRYCALNNKATGAEQEAQRAQLLGLIQRVVRENKEGCYTNRMYQRAEEEIQKQTQAMQELHRVELEREKARIREEYEEKIRKLEDKVEQEKRKKQMEKKLAEQEAHYAVRQQRARTEVESKDGILELIMTALQIASFILLRLFAED	soluble
MEAYKIEHLNKSYADKTIFDNLDLSISEGEKIGLVGINGTGKSTLLKVIGGIDDDFTANVMHPNQYRIRYSSQKQDLNEDMTVFDAVLSSDTTTLRIIKQYEQAVQAYADDQSDKLFKRMMDAQDAMDQHDAWDYNAEIKTILSKLGIHDTTKYIKELSGGQQKRVVLAKTLIEQPDLLLLDEPTNHLDFESISWLINYVKQYPHTVLFVTHDRYFLNEVSTRIIELNRGKLASYPGNYESYIEMRAEREVTLQKQQQKQRALYKEELAWMRAGAKARTTKQQARINRFNDLENEVNQQYKDDKGELNLAYSRLGKQVFELEDLSKAINDKVLFEHLTEIIQKGERIGVVGPNGAGKTTLLNILSGEDQQFEGKLKTGQTVKVAYFKQTDETLDRDIRMIDYLREENEIAKEKDGTSVSITQLLERFLFPSATHGKKVYKLSGGEQKRLYLLRLLVHQPNVLLLDEPTNDLDTETLTILEDYIHTFGGTVITVSHDRYFLNKVAQSYWFIHDGQMEKIIGTFEDYESYKKSLDKNKSTLKQQSKSSTTVRKKNGLSYKEKLEYEQLMKRIEQAEVRMEEIDVLMIEASADYGKIKELNEEKEQLEIQYDLDITRWSELEEIKEQQ	not soluble
MAHHHHHHMSHTAEDARVFREILQRDEECKHCFECGALSPQWCDVNHGVFVCLDCSGVHRSLGVHLSFVRSPTMDGWTNWRPEKLRQMQIGGNRRAREYFERNGVPKAPIRERYQSLGALRYGAMLEAEALGQPFDESSWAPPEWYERMVQSERNRPNGEGMPPQAPQQHRPINGMWGEGHGSTGSGGGKEWLDTLSGGWSVFSKKTKEIAETAGAQARSLITETNVEGVKGTLASGWGAISGFATQMSSKLLNKNQEDDLSVLSDMTQHVKTAVQDDNQGLVGRNMTQSHSEVGNAAFKGQANPYDGDFQSKKD	not soluble
METRQMAVDQTTGAVTNQTETSWHSIDWAKANREVKRLQVRIAKAVKEGRWGKVKALQWLLTHSFYGKALAVKRVTDNSGSRTPGVDGITWSTQEQKTQAIKSLRRRGYKPQPLRRVYIPKANGKQRPLGIPTMKDRAMQALYALALDSAVTSLLEHHHHHH	not soluble
MPQHKFLFTSESVSEGHPDKMCDQISDAVLDAHLAQDPHAKVACETVTKTGMIMLCGEITSKAVVDYQVLVRNVIKKIGYDDSSKGFDYKTCNVLVALEQQSPEIAAGVHVDKDSDDVGAGDQGIMFGYATDETEEAMPLTLLLSHKLNRKLHELRRSGELEWVRPDSKTQVTIEYASEGGACVPLRVHTVVISTQHSPDISLDDLRKELIEKVIKAVIPANLIDDKTIYHLNPCGSFIIGGPMGDAGLTGRKIIVDTYGGWGAHGGGAFSGKDPTKVDRSAAYAARWVAKSLVKAGLCRRCLVQVSYAIGVAKPLSVMVFSFGTSALSEEDLLTIVNDNFDLRPGKIIKNLDLKRPIYEPTAENGHFGHNNFPWEQPRNLKISADMLAKSQGPAQPDVIGIAH	not soluble
MEPSIKGDQEMLKIKKQGHQDLELGLTLLSRGTATSSELNLIDSFKTSSSSTSHHQHQQEQLADPRVFSCNYCQRKFYSSQALGGHQNAHKRERTLAKRGQYYKMTLSSLPSSAFAFGHGSVSRFASMASLPLHGSVNNRSTLGIQAHSTIHKPSFLGRQTTSLSHVFKQSIHQKPTIGKMLPEKFHLEVAGNNNSNMVAAKLERIGHFKSNQEDHNQFKKIDLTLKL	not soluble
MAQDIFMDPWQSATSFAMEDEDMGMPSGKYARMEDEMGENKERFARENHSEIERRRRNKMTHYINELAEMVPQCASLGRKPDKLTILRMAVSHMKGIRGHTAQDETSYKPSFLTDQELKHLILEAANGFLFVVCCQTGKVLYVADSITPVLNLKQEDWLQRNLNELIHPDDQDKIRDQLCGSEVSVNKVLDLKSGSVKREGASTRVHMSCRRGFICRMRVGALEPLHRLRNRRPLFQHAGQNYVVMHCTGYIKNAPPQGINAPASSCLVAIARLQVASMPVCADPTSTNQFSVRVSEDGKMTFIDARVSDLIGLSSDQLIGRYWWNLAHPADEKTLQDSFVALLSDQPMRINIRVRTSTDYIPCTVSAYKFMNPYSEQFEYVVATHQIAPQEDINNWVTAPTVPQPQASEFGELGGAPSAVDYGQSSSGGWRPEAQGAPQAQWQWDPMNGYNQ	not soluble
MVKARKEGKVSKKLKQKPDYGPVKNRHTFRGSNHSMNPDRKPDAKDKSQRSKATINRLRMYKSFKPIRDSKGKILKAAPFQDTLASGTQARIEPNRKWFGNTRIIGQEQLQKFQANLGKVLSDPFQVVMKQTKLPISLLQEKAKTQRVHVTETESFEYTFGKKSLRKKAKLTEASLEEMSKSAEDRDVKYKPELDLSREKELGDRPENMNPLFRAGQSNRVWGELYKVIDSSDVVVQVVDARDPMGTRCRHVEEFLRKEKPHKHLVTVINKVDLVPTWVTRKWIGELSKEMPTIAFHASINNSFGKGAVINLLRQFAKLHPDRPQISVGFIGYPNVGKSSLVNTLRKKKVCKTAPIAGETKVWQYVMLMRRIYLIDSPGVVYPQGDSETQIILKGVVRVENVKDPENHVQGVLDRCKPEHLRRQYGIPEFTDVDDFLTKIAIKQGRLLKGGDPDIVAVSKVVLNEFQRGKLPYFVPPPGCEERAKKDFSQAPINEMCADDDEQLPLDAQLELDDVARNGGPDEDDDEAIDDEEQEELTEIGSTCSGLTDLSGISDLAGDLSDADDVADDDEKPSSSDSKTKKSKTDVASVRTRGKRGGKKANKAKLSGKTIVQAASEKKDKSVVEFAKPGATKTNMWRKKLEKRRKVKHQK	not soluble
GSHMATMALSTAGSGGPPVNHAHAVSVWEFESRGKWLPYSPAVSQHLERAHAKKLTRVMLSDADPSLEQYYVNVRTMTQESEAETAGSGLLTIGVRRMFYAPSSPAGKGTKWEWSGGSADSNNDWRPYNMHVQSIIEDAWARGEQTLDLSNTHIGLPYTINFSNLTQLRQPSGPMRSIRRTQQAPYPLVKLTPQQANQLKSNSASVSSQYNTLPKLGDTKSLHRVPMTRQQHPLPTSHQV	soluble
MGSDKIHHHHHHMPDQAEHLRKNEPNIISVLSGKGGVGKSVIAVNLSLALKEKGLRVLLLDADVGFGSVEILLGFMAPKTLKDFFKSNVRIEDIVFETKYGVDVLSSGIDMEDLILFNLGDRRRFFDEFARLLRKYDYLVIDFPPGYNENLDQFYIQSDFLILVTSPEPTSIINTYTLIKLLSVKGITPEEIFLVMNMVRNMKEGRLAADRLKRVVERFVGFTIKNYFVIKEDQVVQRSVFLQEPFVRSHSRSQPSLAIYGLREKILKEPVQKKGFLNKIRQMLGIG	not soluble
MSRIENESGFLSSDAASVGSEDDKVEMKKRNGTIPKEDHLKSMCNAYQSIIQHVGEDINRQGLLKTPERAAKAMMAFTKGYDDQLDELLNEAVFDEDHDEMVIVKDIEMFSLCEHHLVPFMGKVHIGYIPNKKVLGLSKLARIVEMFSRRLQVQERLTKQIATAMVQAVQPSGVAVVIEASHMCMVMRGVQKINASTTTSCMLGVFRDDPKTREEFLNLINKR	not soluble
RTEQQAASLEQTAASMEQLTATVKQNAENARQASHLALSASETAQRGGKVVDNVVQTMRDISTSSQKIADIISVIDGIAFQTNILALNAAVEAARAGEQGRGFAVVAGEVRNLAQRSAQAAREIKSLIEDSVGKVDVGSTLVESAGETMAEIVSAVTRVTDIMGEIASASDEQSRGIDQVGLAVAEMDRVTQQNAALVEQSAAAAAALEEQASRLTEAVAVFRIQQQ	soluble
MGHHHHHHSHMTTCEFEFIFLKEQVTRICNIAPLKAYFSVHKMGKILKKLSNFSFLTHRQSLTLSPRLECSGAISAHCNLHLLGSSNSAASASRVAGTTGACHHAQLIFVFLVETGFHHVGQDGLGLLTS	not soluble
MAHHHHHHMALKRITKELQDLNKDPPTNCSAGPIGDDLFFWQATIMGPGDSPYENGVYFLNIKFPPDYPFKPPKIIFTTKIYHPNINTAGAICLDILKDQWSPALTISKVLLSISSLLTDPNADDPLVPEIAHVYKTDRTKYHQTAKAWTQKYAQ	soluble
MRIILLGAPGAGKGTQAQFIMEKYGIPQISTGDMLRAAVKSGSELGKQAKDIMDAGKLVTDELVIALVKERIAQEDCRNGFLLDGFPRTIPQADAMKEAGINVDYVLEFDVPDELIVDRIVGRRVHAPSGRVYHVKFNPPKVEGKDDVTGEELTTRKDDQEETVRKRLVEYHQMTAPLIGYYSKEAEAGNTKYAKVDGTKPVAEVRADLEKILG	soluble
MAGKFCSFCGRDIQQVERLIAGPNNVYICNECIDLFHDLLRSDRKVRIKNEIKEIPTPAEIKAELDKYIIGQERAKKVLSVAVYNHYKRVFSNLDSNDVEIEKSNVLLIGPTGTGKTYLARILAKILNVPFAIADATPLTEAGYVGEDVENVVLRLLEAANFDVERAQYGIIYIDEIDKIAKKSPNPSITRDVSGEGVQQALLKILEGTIANVPPQGGRKHPYQEFIKVDTRNILFIAGGAFDGLEEIIKRRIQSTTMGFGAEIKSKKEMRLGEILKHVTPDDLVQYGLIPEFVGRFPVIATLDDLSEDDLVRILKEPKNAVVRQYQKLFEIDGVKLEVTDEALRIIARKALKRGTGARALKNVFEEMMIDMMFELPNLKNVEKVVITEEVALGKEKPIVVMRESA	soluble
MGSDKIHHHHHHMNEEQQVLQEQHQEQTQEQTQEQKETLPPQIERRIKKLISLGKKKGYITYEDIDKAFPPDFEGFDTNLIERIHEELEKHGINIVENEPEEEEISASSDEQELEELLEKESPEIHDSSNVRDSIKMYLKEIGKIPLLTPAQERELARRAQMGDKKAKEKLITSNLRLVVSIAKRYMGRGLSFQDLIQEGNIGLLKAVEKFDWRKGYKFSTYATWWIRQAITRAIADQARTIRIPVHMVETINKLNRLRREYYQKHGEEPSIEELAKMMGKPPEKIKEILEAAKETISLESPIGEDEDSSIEDFVADDSIASPKKEAMRMLMREELEKVLKTLSPREAMVLRMRYGLLDGKPKTLEEVGQYFNVTRERIRQIEVKALRKLRHPSRSKYLKSLLSLMDENEG	not soluble

From the DeepSol protein solubility set
